# Library screen at single concentrations

From ChEMBL document CHEMBL3988442, “University of Dundee, Small-Polar-MMV Screening Library” (2021).

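Whole-cell growth test on Mycobacterium tuberculosis, read after 4 days in a medium based on cholesterol and the lipid DPPC; the read-out is not stated. Tested at 500 µM. Direction is inferred from retests: higher values go with more growth inhibition. Size under these conditions: about 18,000 compounds, about 900 of them at 50% or above in at least one test.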

Results are given as percent effect.
The controls that fix the scale are not given in the record; negative values are as filed.
Compounds were drawn at random from those tested, without regard to their results.

{"smiles": "OC(Cc1ccccc1)c1cccnc1", "stereo": "stereo not shown", "percent effect": 13.08}
{"smiles": "CN(C)Cc1ccc(-c2nc(C3CCOC3)no2)o1", "stereo": "stereo not shown", "percent effect": 3.076}
{"smiles": "CC(C)(C(=O)OCC(N)=O)c1ccccc1", "percent effect": 6.478}
{"smiles": "CCN(CC)S(=O)(=O)NCc1cccc(C#N)c1", "percent effect": 25.85}
{"smiles": "CCOC(=O)NCCC(=O)N(C)Cc1cnn(C)c1", "percent effect": 5.068}
{"smiles": "Cn1ccc(COC(=O)CCc2ccccc2)cc1=O", "percent effect": 4.231}
{"smiles": "Cc1cnn(CC(=O)NC2CCc3c(O)cccc32)c1", "stereo": "stereo not shown", "percent effect": -11.16}
{"smiles": "COCCCNC(=O)c1c(C)oc(C)c1S(N)(=O)=O", "percent effect": -10.35}
{"smiles": "NC1CCCOc2c(Cl)cccc21", "stereo": "stereo not shown", "percent effect": 10.71}
{"smiles": "CC(NC(=O)CCCN1CCCCC1)c1cnn(C)c1", "stereo": "stereo not shown", "percent effect": -8.136}
{"smiles": "CC1CCCCN1S(=O)(=O)c1ccc(CCN)cc1", "stereo": "stereo not shown", "percent effect": 26.24}
{"smiles": "CCCN1CCC(NCCc2ccccn2)CC1", "percent effect": -1.424}
{"smiles": "NC1CCCN(Cc2ccccc2OCCO)CC1", "stereo": "stereo not shown", "percent effect": 22.07}
{"smiles": "CCOc1cccc(CSc2nc(=O)ccn2CC)n1", "percent effect": 26.69}
{"smiles": "COc1ccccc1SC(C)C(=O)N1CCNC1=O", "stereo": "stereo not shown", "percent effect": -0.1183}
{"smiles": "COc1cccc2c1OCC(CNS(C)(=O)=O)C2", "stereo": "stereo not shown", "percent effect": -1.652}
{"smiles": "CC(C)N(C)CCNC(=O)c1ccco1", "percent effect": -7.686}
{"smiles": "CC(=O)N1CCCn2nc(-c3cccc(F)c3)cc2C1", "percent effect": 6.627}
{"smiles": "NC(=O)COc1cc(Cl)cc(Cl)c1", "percent effect": 45.15}
{"smiles": "CC(CO)NC(=O)Nc1nc(-c2ccccc2)ns1", "stereo": "stereo not shown", "percent effect": -8.053}
{"smiles": "CCN(C(=O)Cc1ccsc1)C1CCS(=O)(=O)C1", "stereo": "stereo not shown", "percent effect": 3.593}
{"smiles": "COc1ncc(C)cc1NC(=O)CCc1cccnc1", "percent effect": -8.329}
{"smiles": "C=C(C)CN1CCC(NC(=O)NCC2CCCO2)CC1", "stereo": "stereo not shown", "percent effect": 1.219}
{"smiles": "Cc1nn(C)c(C)c1CCC(=O)N[C@@H]1CCNC[C@H]1O", "percent effect": 11.49}
{"smiles": "Cc1ccc(CS(=O)(=O)N2CCC(C(N)=O)CC2)cc1", "percent effect": -10.76}
{"smiles": "Cn1cnnc1C1CCCN1", "stereo": "stereo not shown", "percent effect": 3.777}
{"smiles": "CNC(=O)NCCNc1ccccc1", "percent effect": 9.649}
{"smiles": "N#CCS(=O)(=O)N1CCCCC1", "percent effect": 3.272}
{"smiles": "Cc1ccc2[nH]c(C(C)N)nc2c1", "stereo": "stereo not shown", "percent effect": -4.033}
{"smiles": "CCN(C)C(=O)CNc1ccccc1S(=O)(=O)CC", "percent effect": -10.13}
{"smiles": "CC(=O)N[C@@H]1CN(Cc2cccc(Br)c2)C[C@H]1CO", "percent effect": 2.664}
{"smiles": "CCC(CC)(CC)NC(=O)NCc1nccn1C", "percent effect": -2.742}
{"smiles": "Cc1ccc(CC(=O)N2CCN(CCO)CC2)cc1C", "percent effect": 1.688}
{"smiles": "Cc1noc(C(C)N2CCN(C(C)C)CC2)n1", "stereo": "stereo not shown", "percent effect": -7.77}
{"smiles": "CNC(=O)C1(c2cccc(Cl)c2)CC1", "percent effect": -12.05}
{"smiles": "COC(=O)CNC(=O)C1CCCN1", "stereo": "stereo not shown", "percent effect": -1.995}
{"smiles": "Cc1ccc(C)c(-n2nnc(C(=O)NC(C)C)c2N)c1", "percent effect": -5.553}
{"smiles": "CCOC(=O)c1cnn2cccnc12", "percent effect": -18.2}
{"smiles": "O=C(NCCn1cncn1)[C@@H](O)Cc1ccccc1", "percent effect": 5.291}
{"smiles": "O=C(NC1CCCC1)c1cnccn1", "percent effect": 0.4239}
{"smiles": "NC(=O)Cc1ccccc1NC(=O)NCc1cccs1", "percent effect": -31.85}
{"smiles": "CCC(C)(C)NC(=O)CNc1ccc2c(c1)OCCO2", "percent effect": 83.54}
{"smiles": "CCC(=O)Nc1ccccc1C(=O)Nc1ccccn1", "percent effect": -30.52}
{"smiles": "COCc1nnc(N)s1", "percent effect": 8.081}
{"smiles": "COCCn1cc(C(F)(F)F)ccc1=O", "percent effect": -20.29}
{"smiles": "CN(CC1CCC1)C(=O)c1ccc2nncn2c1", "percent effect": -7.356}
{"smiles": "Cc1nc(CC(=O)NCC(C)n2ccnc2)cs1", "stereo": "stereo not shown", "percent effect": 0.2433}
{"smiles": "CC(C)(C)Oc1cccc(CN)n1", "percent effect": -1.067}

Once more, the final 6:

Result for CCC(=O)Nc1ccccc1C(=O)Nc1ccccn1 was -30.52%.
Result for COCc1nnc(N)s1 was 8.081%.
Result for COCCn1cc(C(F)(F)F)ccc1=O was -20.29%.
Result for CN(CC1CCC1)C(=O)c1ccc2nncn2c1 was -7.356%.
Result for Cc1nc(CC(=O)NCC(C)n2ccnc2)cs1 (stereo not shown) was 0.2433%.
Result for CC(C)(C)Oc1cccc(CN)n1 was -1.067%.